{"source": "PubChem BioAssay AID1053209 | Peter MacCallum Cancer Centre | 2014", "test": "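Gene losses that combine with doxorubicin to kill mouse bone cancer cells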 (follow-up of hits)", "system": "mouse primary osteosarcoma cells", "reagents": "single siRNA against mouse genes, 25 nM (text also states 40 nM)", "duration": "about 120 h (48 h before drug, then 72 h with drug)", "treatment": "doxorubicin 100 nM (about IC30-40), added 48 h after transfection, for 72 h", "measured": "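ATP-based luminescent viability, with or without doxorubicin, relative to non-targeting control NT1, mean of two replicates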", "reading the numbers": "viability with doxorubicin, vs NT1: higher = more viable cells under doxorubicin; viability without drug, vs NT1: higher = more viable cells without drug", "active means": "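Active when doxorubicin viability is at most 0.7 of NT1 and drug-free viability lies between 0.7 and 1.1, class LC dox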", "note": "The deposit covers about 1,580 reagents; this is a random part of them. Of all reagents, 207 (13%) are marked active. 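Rows are single siRNAs; four siRNAs per gene were tested, a gene counting as confirmed only when at least two agree.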 Unmarked entries are inactive. Further read-outs or replicates are left out here."}
{"gene symbol": "Spata17", "PubChem SID": "SID152292223", "combined effect class": "normal viability with and without drug", "viability with doxorubicin, vs NT1": 1.05, "viability without drug, vs NT1": 0.98}
{"gene symbol": "Spata17", "PubChem SID": "SID193126364", "combined effect class": "normal viability with and without drug", "viability with doxorubicin, vs NT1": 0.98, "viability without drug, vs NT1": 0.99}
{"gene symbol": "Spata17", "PubChem SID": "SID193126373", "combined effect class": "normal viability with and without drug", "viability with doxorubicin, vs NT1": 1.07, "viability without drug, vs NT1": 0.96}
{"gene symbol": "Spata17", "PubChem SID": "SID193126387", "combined effect class": "normal viability with and without drug", "viability with doxorubicin, vs NT1": 0.97, "viability without drug, vs NT1": 0.94}
{"gene symbol": "Il17a", "PubChem SID": "SID152299374", "combined effect class": "normal viability with and without drug", "viability with doxorubicin, vs NT1": 0.96, "viability without drug, vs NT1": 0.96}
{"gene symbol": "Il17a", "PubChem SID": "SID152317524", "combined effect class": "normal viability with and without drug", "viability with doxorubicin, vs NT1": 0.99, "viability without drug, vs NT1": 1.06}
{"gene symbol": "Il17a", "PubChem SID": "SID152319987", "combined effect class": "high viability only with doxorubicin", "viability with doxorubicin, vs NT1": 1.12, "viability without drug, vs NT1": 1.03}
{"gene symbol": "Il17a", "PubChem SID": "SID152324314", "combined effect class": "high viability only with doxorubicin", "viability with doxorubicin, vs NT1": 1.12, "viability without drug, vs NT1": 1.06}
{"gene symbol": "Sf3a1", "PubChem SID": "SID152273950", "combined effect class": "low viability with and without drug", "viability with doxorubicin, vs NT1": 0.33, "viability without drug, vs NT1": 0.48}
{"gene symbol": "Sf3a1", "PubChem SID": "SID152280912", "combined effect class": "low viability with and without drug", "viability with doxorubicin, vs NT1": 0.19, "viability without drug, vs NT1": 0.55}
{"gene symbol": "Sf3a1", "PubChem SID": "SID152329628", "combined effect class": "low viability only with doxorubicin; normal without drug (active)", "viability with doxorubicin, vs NT1": 0.43, "viability without drug, vs NT1": 0.72}
{"gene symbol": "Sf3a1", "PubChem SID": "SID152334628", "combined effect class": "low viability with and without drug", "viability with doxorubicin, vs NT1": 0.13, "viability without drug, vs NT1": 0.32}

3 entries already listed, ordered by “viability without drug, vs NT1”, descending.
{"gene symbol": "Sf3a1", "PubChem SID": "SID152329628", "combined effect class": "low viability only with doxorubicin; normal without drug (active)", "viability with doxorubicin, vs NT1": 0.43, "viability without drug, vs NT1": 0.72}
{"gene symbol": "Sf3a1", "PubChem SID": "SID152280912", "combined effect class": "low viability with and without drug", "viability with doxorubicin, vs NT1": 0.19, "viability without drug, vs NT1": 0.55}
{"gene symbol": "Sf3a1", "PubChem SID": "SID152273950", "combined effect class": "low viability with and without drug", "viability with doxorubicin, vs NT1": 0.33, "viability without drug, vs NT1": 0.48}

The listing continues:
{"gene symbol": "Prkar2b", "PubChem SID": "SID152298999", "combined effect class": "high viability only with doxorubicin", "viability with doxorubicin, vs NT1": 1.12, "viability without drug, vs NT1": 1.04}
{"gene symbol": "Prkar2b", "PubChem SID": "SID152306774", "combined effect class": "high viability only without drug", "viability with doxorubicin, vs NT1": 1.04, "viability without drug, vs NT1": 1.12}
{"gene symbol": "Prkar2b", "PubChem SID": "SID152316562", "combined effect class": "normal viability with and without drug", "viability with doxorubicin, vs NT1": 0.82, "viability without drug, vs NT1": 0.99}
{"gene symbol": "Prkar2b", "PubChem SID": "SID152334749", "combined effect class": "normal viability with and without drug", "viability with doxorubicin, vs NT1": 0.93, "viability without drug, vs NT1": 0.9}
{"gene symbol": "Rasa2", "PubChem SID": "SID152260778", "combined effect class": "normal viability with and without drug", "viability with doxorubicin, vs NT1": 1.07, "viability without drug, vs NT1": 1}
{"gene symbol": "Rasa2", "PubChem SID": "SID152288028", "combined effect class": "normal viability with and without drug", "viability with doxorubicin, vs NT1": 0.99, "viability without drug, vs NT1": 1.08}
{"gene symbol": "Rasa2", "PubChem SID": "SID152304882", "combined effect class": "normal viability with and without drug", "viability with doxorubicin, vs NT1": 1.09, "viability without drug, vs NT1": 1.03}
{"gene symbol": "Rasa2", "PubChem SID": "SID152315087", "combined effect class": "normal viability with and without drug", "viability with doxorubicin, vs NT1": 1.06, "viability without drug, vs NT1": 0.98}
{"gene symbol": "Rpl5", "PubChem SID": "SID152273510", "combined effect class": "low viability with and without drug", "viability with doxorubicin, vs NT1": 0.44, "viability without drug, vs NT1": 0.69}
{"gene symbol": "Rpl5", "PubChem SID": "SID152280914", "combined effect class": "low viability with and without drug", "viability with doxorubicin, vs NT1": 0.26, "viability without drug, vs NT1": 0.5}
{"gene symbol": "Rpl5", "PubChem SID": "SID152291204", "combined effect class": "low viability with and without drug", "viability with doxorubicin, vs NT1": 0.21, "viability without drug, vs NT1": 0.45}
{"gene symbol": "Rpl5", "PubChem SID": "SID152291716", "combined effect class": "low viability with and without drug", "viability with doxorubicin, vs NT1": 0.26, "viability without drug, vs NT1": 0.2}
